# In PMC6925144, “A prospective compound screening contest identified broader inhibitors for Sirtuin 1” (Scientific Reports, 2019):
# The chains behind the UniProt entries cited, without tags or fusion partners. Residues count along the entry.
# UniProt Q96EB6, 2-747 limits assumed: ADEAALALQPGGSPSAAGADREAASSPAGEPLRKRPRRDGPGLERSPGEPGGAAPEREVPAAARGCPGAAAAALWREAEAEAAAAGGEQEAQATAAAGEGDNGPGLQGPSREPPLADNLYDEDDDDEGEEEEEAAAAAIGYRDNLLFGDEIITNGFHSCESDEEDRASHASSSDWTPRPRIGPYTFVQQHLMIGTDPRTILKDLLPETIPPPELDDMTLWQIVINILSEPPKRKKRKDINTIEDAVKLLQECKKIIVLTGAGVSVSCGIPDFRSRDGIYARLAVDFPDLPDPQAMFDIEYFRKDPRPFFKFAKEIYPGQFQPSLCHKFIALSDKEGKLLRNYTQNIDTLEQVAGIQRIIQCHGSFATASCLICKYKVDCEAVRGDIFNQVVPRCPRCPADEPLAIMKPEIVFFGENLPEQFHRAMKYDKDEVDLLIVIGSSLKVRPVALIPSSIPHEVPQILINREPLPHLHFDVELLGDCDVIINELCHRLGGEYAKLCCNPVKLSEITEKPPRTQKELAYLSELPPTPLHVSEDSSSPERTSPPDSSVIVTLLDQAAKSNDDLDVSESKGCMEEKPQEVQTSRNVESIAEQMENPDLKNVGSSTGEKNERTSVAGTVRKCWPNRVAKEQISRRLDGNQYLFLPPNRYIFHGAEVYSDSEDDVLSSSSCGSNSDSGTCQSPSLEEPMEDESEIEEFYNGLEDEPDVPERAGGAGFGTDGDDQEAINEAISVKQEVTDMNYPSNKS
# Over roughly 3,200 compounds, “TSA(without NAD+) / Primary screening (TSA) / delta Tm (K)” has its median near -0.07; the highest 2% begin near 0.37. The list shows a part of the results.
# Biological target: NAD-dependent deacetylase Sirtuin 1 (human, UniProt Q96EB6)
# Test: primary screen, delta tm
# Design: single well (n = 1)
# Conditions: 10 µM
# Summary of the method: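 Thermal shift of Sirtuin 1 measured without NAD+, compound at 10 µM (n = 1); value is ΔTm, with hits defined as ΔTm > 0.45 K or < −1.5 K. Hits retested at 5, 10, 20 µM (n = 4) and counterscreened on bovine carbonic anhydrase and ABL1 SH2 domain.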
row,SMILES,TSA(without NAD+) / Primary screening (TSA) / delta Tm (K)
1,CN(C)c1ccc(CNc2ncnc3ccsc23)cn1,0.05 K
2,CC(C)OCCN,-0.17 K
3,CN(c1cccc(Cl)c1)S(=O)(=O)c1cccc(C(=O)Nc2ncc(C(N)=O)s2)c1,0.37 K
4,CCC(C)(C)NC(=O)c1ccc2[nH]c(=O)c(=O)[nH]c2c1,0.05 K
5,CC1CN(CC(=O)c2ccccc2Cl)CC(C)O1 (stereo not shown),-0.27 K
6,O=C(N/N=C/c1ccc(O)cc1O)C(=O)N/N=C/c1ccc(O)cc1O,-0.03 K
7,NC(=O)C1CCCCCC1NC(=O)c1ccncc1Cl (stereo not shown),-0.18 K
8,COc1ccc(/C=C2\Oc3cc(OC)ccc3C2=O)c(OC)c1,-0.08 K
9,CC(=O)Nc1ccc(-c2csc(NC(=O)Cn3[nH]c(=O)ccc3=O)n2)cc1,-0.18 K
10,CN(C(=O)c1cc(O)nc2ccccc12)c1ccc2ccccc2c1,-0.03 K
11,O=C(CN1CCN(C(=O)c2cc(-c3ccncc3)nc3ccccc23)CC1)Nc1ccccc1Cl,-0.18 K
12,Cc1cc(C=C2C(=O)NC(=S)NC2=O)c(C)n1-c1ccccc1Cl,-0.67 K
13,NC(=O)c1ccc(NC(=O)COC(=O)/C=C/c2ccc3c(c2)OCO3)cc1,-0.13 K
14,Cc1ccccc1C1CN(C(=O)C2CCc3n[n-]nc3C2)CCO1 (stereo not shown),-0.13 K
15,CC(NC(=O)COC(=O)CCCN1C(=O)c2cccc3cccc(c23)C1=O)C12CC3CC(CC(C3)C1)C2 (stereo not shown),-0.34 K
16,OCCCCN1CCN(c2ncnc3cc(Cl)ccc23)CC1,0.08 K
17,CC1CCc2c(sc3ncnc(N4CCN(Cc5csc(-c6ccco6)n5)CC4)c23)C1 (stereo not shown),-0.12 K
18,O=C(Cn1cnc2sc3c(c2c1=O)CCC3)N1CCc2ccccc2C1,-0.12 K
19,Cn1cc(C2CCN(c3ncnc4ccccc34)CC2)cn1,-0.11 K
20,COC(=O)CCCNC(=O)c1cc(-c2ccco2)nc2c(C(N)=O)ncn12,-0.07 K
21,Nn1c(S)nnc1-c1ccccc1F,-0.23 K
22,O=C(CCl)c1c(-c2ccc(F)cc2)[nH]c2ccccc12,0.08 K
23,CCNC(=O)C(C)NC(=O)c1cccc(S(=O)(=O)N(C)c2ccc(C)cc2)c1 (stereo not shown),-0.12 K
24,CCOc1cccc(C2C(C(=O)c3cc4ccccc4o3)=C(O)C(=O)N2CCCN2CCOCC2)c1 (stereo not shown),-0.01 K

row,SMILES,TSA(without NAD+) / Primary screening (TSA) / delta Tm (K)
1,Cc1[nH]c2ccccc2c1CC(=O)Nc1cccc(-c2noc(=O)[nH]2)c1,0.07 K
2,O=C(Nc1ccccc1)c1ccc(CNC(c2ccccc2)c2ccccc2)cc1,0.12 K
3,O=C(O)CCCCNC(=O)OCc1ccccc1,-0.15 K
4,Cc1c(C(=O)O)c(=O)oc2cc(F)ccc12,-0.21 K
5,NC(=O)c1cccc2c1CCCN2C(=O)CCCn1c(=O)oc2ccccc21,0.02 K
6,COC(=O)C(C(=O)c1ccccc1)=C1Nc2ccccc2N1,-0.12 K
7,CN(c1ccccc1)S(=O)(=O)c1cccc(NC(=O)c2cc(Cl)nc3ccccc23)c1,0.17 K
8,COC(=O)c1ccc(C(=O)NNC(=O)Cc2cn3ccsc3n2)cc1,0.35 K
9,CCCCn1c(N)c(NC)c(=O)[nH]c1=O,-0.28 K
10,CN(C)C(=O)c1ccc2[nH]c3c(c2c1)CCCCC3,0.17 K
11,CC(C)Cc1cc(NC(=O)Cc2coc(-c3cccs3)n2)n(C)n1,-0.13 K
12,O=C(Nc1cccc(C(F)(F)F)c1)c1cccc(NC(=O)c2cc3c(cc2[N+](=O)[O-])OCCO3)c1,0.23 K
13,COc1cc(CN(C)C(=O)Cc2ccc3c(c2)OCCO3)ccc1OCc1ccccc1,-0.14 K
14,CCCNC(=O)CNc1ccccc1OC(F)F,-0.18 K
15,Cc1ccc2[nH]c3c(c2c1)CC(C)(C)CC3,-0.38 K
16,CC(O)CCCN (stereo not shown),-0.18 K
17,O=C(COC(=O)C1=COCCO1)NCCc1c[nH]c2ccccc12,-0.22 K
18,CCCOc1ccc(/C=c2/s/c(=C\C(=O)OCC)n(CC(=O)NCC3CCCO3)c2=O)cc1OCC (stereo not shown),0.06 K
19,Cc1nn(Cc2ccccc2)c(Cl)c1/C=C/C(=O)OC(C)C(=O)Nc1ncc(Cl)cc1Cl (stereo not shown),0.07 K
20,COc1ccccc1C1C(C(=O)/C=C/c2ccco2)=C(O)C(=O)N1CCCN1CCOCC1 (stereo not shown),-0.22 K
21,O=C(O)CC(O)(CC(=O)O)C(=O)O,0.02 K
22,CCCNC(=O)Nc1ccc(OC)cc1,-0.12 K
23,NC(=O)C1CCCN(c2ncnc3cc(-c4ccc(Br)cc4)sc23)C1 (stereo not shown),-0.18 K
24,CC1Cc2ccccc2N1S(N)(=O)=O (stereo not shown),-0.17 K

row,SMILES,TSA(without NAD+) / Primary screening (TSA) / delta Tm (K)
1,CC(C)C(O)c1ccccc1NC(=O)c1cc2ccccc2n1C (stereo not shown),-0.13 K
2,c1ccc(OC2CCN(c3ncnc4c3oc3ccccc34)CC2)nc1,0.25 K
3,COc1cccc(C(C)NCc2ccc3[nH]c(=O)[nH]c3c2)c1 (stereo not shown),-0.02 K
4,CCc1cc(CN2CCc3cc(OC)c(OC)cc3C2)c(C)cc1O,-0.23 K
5,CCN(CC(=O)Nc1ccc(NC(C)=O)cc1)C(=O)CCCSc1nc2ccccc2[nH]1,0.22 K
6,O=C(O)CCn1cc(C=C2C(=O)NC(=O)NC2=O)c(-c2ccc(Br)cc2)n1,-0.32 K
7,O=C(OCC(=O)C12CC3CC(CC(C3)C1)C2)c1ccc(N2C(=O)c3ccccc3C2=O)cc1,-0.01 K
8,O=C(CCc1nc2ccccc2c(=O)[nH]1)Nc1cccc(S(=O)(=O)NCc2ccco2)c1,-0.08 K
9,Cc1c(C)n(-c2ccc(O)cc2)c2ncnc(N)c12,-0.07 K
10,O=C(NC1CCN(C(=O)Nc2ccc([N+](=O)[O-])cc2)CC1)c1ccccn1,-0.08 K
11,NC1=Nc2nc3ccccc3n2C(c2ccc(-c3ccc(C(=O)O)cc3)o2)N1 (stereo not shown),1.36 K
12,CN/C(=N/c1ccc2ccccc2c1)c1ccccc1,-0.08 K
13,Cc1nc(C(=O)NC(Cc2ccccc2)C(=O)N(C)C)ccc1C#N (stereo not shown),0.12 K
14,Cc1nc(N2CCN(c3ncccc3C(N)=O)CC2)c2c3c(sc2n1)CCC3,-0.22 K
15,O=C(Nc1ccccc1Cc1ccccc1)C12CC3CC(CC(Br)(C3)C1)C2,0.18 K
16,Cc1cccc(-n2ccnc2SCC(=O)Nc2ccc(S(=O)(=O)Nc3nccs3)cc2)c1C,0.08 K
17,Cc1ccc(NC(=O)c2cc3c(nc4sccn43)s2)c(O)c1,0.17 K
18,CCc1cc2c(N3CCN(Cc4ccc5c(c4)OCO5)CC3)ncnc2s1,-0.05 K
19,O=C(CCn1ccccc1=O)Nc1cccnc1,-0.11 K
20,NC(=O)C1CC(O)CN1c1ncnc2cc(-c3ccc(Br)cc3)sc12 (stereo not shown),-0.12 K
21,CC(O)C(N)CN (stereo not shown),-0.04 K
22,Cc1ccc2c(c1)c(=O)n(C)c1nnc(CN3CCc4ccccc4C3)n21,-0.32 K
23,CC1CC1c1ccc(CCC(=O)NCC2CCCN(Cc3cccs3)C2)o1 (stereo not shown),-0.23 K
24,O=C1/C(=C/c2ccccc2OC(F)F)Oc2cc(O)ccc21,0.02 K

row,SMILES,TSA(without NAD+) / Primary screening (TSA) / delta Tm (K)
1,O=C(O)c1ccc2[nH]c(S)nc2c1,-0.13 K
2,O=C(NCC1CCCO1)Nc1ccc(NC(=O)c2ccccn2)cc1 (stereo not shown),0.07 K
3,O=C(/C=C/c1ccccn1)NCc1ccc(OCC2CCCO2)cc1 (stereo not shown),0.09 K
4,CCc1nsc(NCc2cccnc2N2CCC(C(N)=O)CC2)n1,-0.01 K
5,OCCN(c1ncnc2c1oc1ccccc12)C1CC1,-0.33 K
6,COc1ccc(CCCC(=O)Nc2ccc(C(N)=O)cc2OCC(F)F)cc1,-0.23 K
7,COCCNc1oc2c(c1-c1ccccc1[N+](=O)[O-])c(=O)oc1c(C)cccc12,0.03 K
8,Cn1cnc(-c2ccc(OCC(=O)Nc3cccc(C(=O)NC4CC4)c3)cc2)n1,-0.02 K
9,Cc1ccc2nc(Cl)c(C=C3C(=O)NC(=S)NC3=O)c(=O)n2c1,-0.07 K
10,O=C1NC(=S)N/C1=C\c1ccccc1OCc1ccc(C(=O)O)cc1,0.38 K
11,N#Cc1ccccc1Sc1ccccc1C(=O)OCC(=O)NC(=O)NC12CC3CC(CC(C3)C1)C2,-0.21 K
12,COc1ccc(CCSc2nnc(-c3cccnc3)n2N)cc1,-0.03 K
13,NS(=O)(=O)Nc1cccc(CNC(=O)CCCc2nc3ccccc3c(=O)[nH]2)c1,-0.13 K
14,CCOc1ccccc1NC(=O)c1cccc(S(=O)(=O)NC(C)C23CC4CC(CC(C4)C2)C3)c1 (stereo not shown),0.16 K
15,CC(C)C(C)CN (stereo not shown),-0.21 K
16,CC(C(=O)Nc1cccc2ccccc12)N1CCc2ccc(O)cc2CC1 (stereo not shown),-0.14 K
17,Cc1ccc(C(=O)C2CCN(c3cc(=O)n4ccccc4n3)CC2)cc1,-0.22 K
18,COc1ccc(CN(C)C(=O)c2cnc3ccccn3c2=O)cc1F,0.12 K
19,O=C1OC(C(=O)O)Cc2ccccc21 (stereo not shown),0.02 K
20,COCc1nnc(S)[nH]1,-0.02 K
21,Cn1cc(S(=O)(=O)N2CCN(C(=O)Cn3cnc4ccc(F)cc4c3=O)CC2)cc1C(N)=O,-0.04 K
22,O=C(CC12CC3CC(CC(C3)C1)C2)NNC(=O)c1ccc(NS(=O)(=O)/C=C/c2ccccc2)cc1,0.17 K

# Taken from above.
# Entry for `Cc1ccc(NC(=O)c2cc3c(nc4sccn43)s2)c(O)c1` under TSA(without NAD+) / Primary screening (TSA) / delta Tm (K): 0.17 K
# Entry for `CN(c1ccccc1)S(=O)(=O)c1cccc(NC(=O)c2cc(Cl)nc3ccccc23)c1` under TSA(without NAD+) / Primary screening (TSA) / delta Tm (K): 0.17 K
# Entry for `Cc1ccc2c(c1)c(=O)n(C)c1nnc(CN3CCc4ccccc4C3)n21` under TSA(without NAD+) / Primary screening (TSA) / delta Tm (K): -0.32 K
# Entry for `O=C(O)CCCCNC(=O)OCc1ccccc1` under TSA(without NAD+) / Primary screening (TSA) / delta Tm (K): -0.15 K
